PubChem BioAssay AID1259308, NCATS | 2017
Aim: 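Genes whose loss raises luciferase production in HEK293 cells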 (primary screen). Cells: human HEK293 embryonic kidney cells stably expressing firefly luciferase (HEK-CMV-Luc2-Hygro). Reagents: single siRNA against human genes, 0.8 pmol siRNA per well. Timing: 72 h. Detection: 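Reporter luminescence and viable-cell signal on separate replicate plates, given as percent of non-targeting control and median/MAD z-scores, plus per-cell luciferase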. Scale: total luciferase, z-score: higher = more reporter protein produced. Active means: 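Active when the median/MAD z-score for overall luciferase is greater than 3; a gene was taken forward for validation with new siRNAs if at least two of its three siRNAs passed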. Meaning of the calls: active = raised luciferase; inactive = no rise.
This is one part, drawn at random, of about 59,000 deposited reagents. About 1,510 of them (2.6%) were called active. 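Calls use total luciferase alone and ignore viability, so some active siRNAs may act by altering cell number.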 The numbers tell different reagents against one gene apart. Further read-outs or replicates are left out here.

total luciferase, z-score, by gene symbol and reagent
SLCO2B1: #1 0.0475 inactive; #2 -1.18 inactive; #3 0.365 inactive
DPPA4: #1 1.55 inactive; #2 -1.61 inactive; #3 -0.617 inactive
C8orf33: #1 -1.3 inactive; #2 -0.581 inactive; #3 -0.0539 inactive
NMT1: #1 1.84 inactive; #2 -0.362 inactive; #3 -0.409 inactive
AK3: #1 0.867 inactive; #2 1.01 inactive; #3 0.0341 inactive
FBXL4: #1 -0.122 inactive; #2 -0.651 inactive; #3 2.03 inactive
LENEP: #1 2.02 inactive; #2 0.706 inactive; #3 -0.676 inactive
RCC2: #1 -0.354 inactive; #2 0.229 inactive; #3 -0.233 inactive
TTC7A: #1 2.45 inactive; #2 4.17 active; #3 -0.371 inactive
GLI4: #1 -0.976 inactive; #2 0.789 inactive; #3 -0.171 inactive
THUMPD3: #1 0.782 inactive; #2 -0.991 inactive; #3 -0.371 inactive

An excerpt taken from the entries so far, for reference:
total luciferase, z-score, by gene symbol and reagent
TTC7A: #1 2.45 inactive; #2 4.17 active; #3 -0.371 inactive

Next results follow:
total luciferase, z-score, by gene symbol and reagent
FRMD1: #1 0.0316 inactive; #2 0.715 inactive; #3 0.421 inactive
CDKAL1: #1 -0.483 inactive; #2 0.11 inactive; #3 1.72 inactive
F3: #1 1.14 inactive; #2 0.0218 inactive; #3 0.42 inactive
METTL26: #1 0.848 inactive; #2 0.266 inactive; #3 -0.983 inactive
B3GAT3: #1 0.61 inactive; #2 -1.02 inactive; #3 -1.2 inactive
APOLD1: #1 -1.08 inactive; #2 0.928 inactive; #3 -1 inactive
C3orf18: #1 0.249 inactive; #2 1.51 inactive; #3 -0.856 inactive
KDM1B: #1 0.194 inactive; #2 -0.639 inactive; #3 -0.239 inactive
